Our source for the binding values is publication PMC4416881, “Regulation of Active DNA Demethylation by a Methyl-CpG-Binding Domain Protein in Arabidopsis thaliana” (PLoS Genetics, 2015).

Results are given in words; binding and its absence hold for the method and conditions named. A result given as binding can be weak or reduced; the word gives no strength. Sequences can lack the tags named with a protein.

Experiment [1] deals with C-terminal of IDM1 (yeast two-hybrid fusion) (Arabidopsis thaliana). Put plainly: two-hybrid; pGBK-T7 (BD) and pGAD-T7 (AD) fusions in yeast AH109; growth on medium lacking Leu, Trp, Ade and His.
In experiment [2] the target is N-terminal of IDM1 (yeast two-hybrid fusion) (Arabidopsis thaliana). The description is as above.

B1: IDL1 (yeast two-hybrid fusion) (protein, UniProt Q9SYQ0 1-463)
chain: MSLYSDGLSSDQYFLVNFIMSNYLGPDVYSDNPRCSSSQRLARGLPPYTLMHIGSSSLTVSQLQNLYYNVLRNAKSSLLLHPDMIYMYLKGYLPLEPSGKFPQFTHFFPTNLHPQKRYSPSHEIVKGIVVIDDPAVGFINKEELQRFRCLSRLDDLKIDRVTSLSPRVNLDESRETEQDCSRNGDATANGVVTNEDYNSSGELQETCKRKEGEDAVASCVISEPERLSGDIPESQGMKQDCSRNGESAFSGIVSDQDYYSFVKLPETCKRKNKEEEAVTGHAVSGTSKTPERFRETYKRRRFKNSSKKATNKNGETLMEREKTDKPIPFSSEMKESDAEPSVVTTGTASKETLGSSVGVVDIGVNKVAYFFQVALPGVRKDYGEFSCEIESDGKVILEGSTTRGEKNIKRHSRVFEMNIRKLCPPGPFKLCFNLPGPVDPRLFSPNFRSDGIFEGVIIRHKNS
As for B1, the binding entry in experiment [1] is “binds”.

B2: IDM2 (yeast two-hybrid fusion) (protein, UniProt Q8RWL4 1-349)
chain: MSDTMPEIVSPLVAENSQEQEESVLISLDIEEDKLFLLHFIIGTYFGPDLRKQHHRPKQSAFQIQALKNVVVDELSGSLMKRAELERVYYHIIRNVDPSLVMKPKKLREYFNAKRNDSNRDYPLFVDLFPRKLHPETHVRHKFKFIRSIVFINDPDTSCMREECVARFKRLTGLDSFALSLSVDVTKSNGVVAANEVKVEIDESVEPVKEDNAGTCTSGEESDVAAKPEVKSEAHGGLMVGLMDIGECDDAYLFRVSLPGVKRDERYFSCEVEDNGKVLVRGVTTTGGKRVKRYSHVFEMQTRSLCPPGNFSVSFRLPGPVHPHEFSGNFGTDGILEGVVMKNLQKQTV
Take B2: in experiment [2], the binding result is on record as “binds”.
